These are yes or no findings as the source states them, for the method shown. Binding seen in cells or lysates may run through a third protein. A result given as binding can be weak or reduced; the word gives no strength.
Target: Lpd-EGFP fusion protein (human Lamellipodin) (human) (UniProt Q70E73)
Test: co-IP

Amino acid sequences for entries named in this document (tags omitted).
UniProt Q70E73: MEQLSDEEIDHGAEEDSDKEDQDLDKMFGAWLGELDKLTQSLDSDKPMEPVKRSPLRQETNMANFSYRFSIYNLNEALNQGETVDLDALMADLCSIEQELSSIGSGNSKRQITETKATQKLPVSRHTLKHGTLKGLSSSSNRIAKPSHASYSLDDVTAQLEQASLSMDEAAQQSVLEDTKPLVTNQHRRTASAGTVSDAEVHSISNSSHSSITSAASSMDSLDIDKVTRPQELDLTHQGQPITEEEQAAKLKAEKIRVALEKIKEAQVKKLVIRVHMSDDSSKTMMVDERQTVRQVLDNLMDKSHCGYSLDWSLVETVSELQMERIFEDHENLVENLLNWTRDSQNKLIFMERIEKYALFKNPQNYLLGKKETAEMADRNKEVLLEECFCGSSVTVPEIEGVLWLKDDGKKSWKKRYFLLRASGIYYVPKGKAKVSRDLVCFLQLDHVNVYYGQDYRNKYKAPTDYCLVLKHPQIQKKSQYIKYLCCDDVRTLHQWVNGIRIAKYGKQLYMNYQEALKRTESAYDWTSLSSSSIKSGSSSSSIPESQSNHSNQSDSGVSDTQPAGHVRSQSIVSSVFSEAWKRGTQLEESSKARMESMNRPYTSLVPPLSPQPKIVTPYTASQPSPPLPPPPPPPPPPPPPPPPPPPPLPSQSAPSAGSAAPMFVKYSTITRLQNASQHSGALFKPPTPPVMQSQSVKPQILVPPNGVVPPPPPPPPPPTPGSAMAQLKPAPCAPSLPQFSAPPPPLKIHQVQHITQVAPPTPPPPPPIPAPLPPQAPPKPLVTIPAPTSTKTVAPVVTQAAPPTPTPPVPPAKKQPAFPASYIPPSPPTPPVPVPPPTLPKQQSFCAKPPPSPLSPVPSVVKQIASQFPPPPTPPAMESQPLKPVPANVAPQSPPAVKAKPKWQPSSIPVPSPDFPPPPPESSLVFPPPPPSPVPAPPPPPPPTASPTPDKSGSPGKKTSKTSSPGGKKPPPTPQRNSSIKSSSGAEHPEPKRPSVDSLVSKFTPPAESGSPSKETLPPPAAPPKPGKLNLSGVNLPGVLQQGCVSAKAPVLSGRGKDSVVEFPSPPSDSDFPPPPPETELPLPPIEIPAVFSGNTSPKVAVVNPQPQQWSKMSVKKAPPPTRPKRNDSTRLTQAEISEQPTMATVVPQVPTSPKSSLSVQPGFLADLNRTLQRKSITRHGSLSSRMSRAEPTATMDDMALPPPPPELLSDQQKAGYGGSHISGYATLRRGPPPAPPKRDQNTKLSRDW

Myc-Mena (murine) (from UniProt Q03173-3)
binding: binds
